Reference: the supplement of paper PMC3334620
The full ranking holds about 33,000 sequences; the median of “E-score (-0.5 to 0.5)” is about -0.015, and the highest 2% start at about 0.3. The list shows a part of the results.

target: T1, Abf1 (UniProt P14164); assay: PBM E-score (8-mer binding enrichment) (E-score (-0.5 to 0.5)); higher = stronger / more preferred TF binding; details: protein concentration: 200 nM; construct: GST-full length
T1 sequence: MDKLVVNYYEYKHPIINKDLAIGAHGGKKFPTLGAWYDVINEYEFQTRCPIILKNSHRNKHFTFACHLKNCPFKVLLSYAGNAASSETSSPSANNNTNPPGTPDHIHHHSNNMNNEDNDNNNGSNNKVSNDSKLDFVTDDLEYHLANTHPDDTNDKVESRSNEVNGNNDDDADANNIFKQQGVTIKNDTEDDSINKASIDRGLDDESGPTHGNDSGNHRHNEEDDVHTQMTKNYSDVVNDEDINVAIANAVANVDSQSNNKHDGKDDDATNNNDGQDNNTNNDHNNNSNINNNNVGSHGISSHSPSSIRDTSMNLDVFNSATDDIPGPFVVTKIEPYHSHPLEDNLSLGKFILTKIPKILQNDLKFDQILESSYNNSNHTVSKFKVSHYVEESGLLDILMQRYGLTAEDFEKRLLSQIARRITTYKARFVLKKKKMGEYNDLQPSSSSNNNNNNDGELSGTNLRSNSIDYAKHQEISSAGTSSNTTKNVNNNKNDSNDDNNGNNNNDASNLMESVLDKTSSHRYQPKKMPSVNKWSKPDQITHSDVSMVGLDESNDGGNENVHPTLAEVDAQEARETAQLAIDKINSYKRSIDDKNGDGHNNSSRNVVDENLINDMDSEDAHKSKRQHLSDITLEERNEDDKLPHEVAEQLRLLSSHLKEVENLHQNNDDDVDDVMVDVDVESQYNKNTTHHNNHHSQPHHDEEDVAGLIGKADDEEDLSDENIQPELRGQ
Procedure, shortened: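 E-scores (a modified Wilcoxon-Mann-Whitney statistic) were assigned by the Universal PBM Analysis Suite to every ungapped eight-base word pooled with its reverse complement. The input came from universal all-10-mer Agilent arrays made double-stranded by primer extension and probed with GST-tagged yeast transcription factors at about 100-200 nM. Fluorescent anti-GST detected bound protein, and masliner normalised the scans.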

Sequence | PBM E-score
ACGTGACC | 0.0122
GTGAGAGA | 0.0332
CCAGGTTA | -0.132
GTTCAAAA | 0.0939
CAAAGACC | -0.00385
CACCCATA | -0.154
GATGGACA | 0.00093
GAATCGGC | -0.132
TCCGAAAA | 0.147
ACTCTCGG | -0.0501
ACACCTCA | -0.0567
ACCGGCTC | -0.0655
ACCCTGAG | -0.0689
ATAACTAG | 0.182
GACGCACA | -0.0948
CTATGATC | 0.227
ATGACCTA | 0.235
CGCGCCCC | -0.193
AGATTAGA | 0.0285
AAGTTCGT | 0.0462
GAGCTGCA | -0.202
ATGATTCA | 0.117
CCGTCATC | 0.128
ACACGATC | 0.25
CATCCGCC | -0.193

Part of the list above, set out differently:
Sequence	PBM E-score
CACCCATA	-0.154
ACCGGCTC	-0.0655
ATGATTCA	0.117
ACACGATC	0.25

Remaining list, next part:

Sequence | PBM E-score
AGGCTGGA | -0.132
ACTAATCT | 0.0547
CAGACTCC | -0.323
CGCCAGAC | 0.00888
ACAAGTAA | -0.00214
CTTTATAC | 0.219
GAATACCC | -0.103
CCATGACG | 0.143
CTGCGCTA | -0.185
GCCGGAGA | -0.0395
AGACGAGC | 0.138
GCCTCCAA | -0.121
GTGGTACA | 0.113
AACAGGAG | -0.178
CGCGTGAC | 0.303
TGAAATAA | 0.215
CTAAAATC | -0.0564
GCTTTTAA | -0.115
TCGCGAAA | 0.2
CCGCATCG | -0.126
TACGAGAA | 0.291
AGTAGAAT | -0.0946
CTGGTCTA | -0.141
GCCGACTA | 0.101
CGACATCC | 0.121

Quoted at random: three records from the list.
Sequence | PBM E-score
GCCGGAGA | -0.0395
TACGAGAA | 0.291
ACACGATC | 0.25

The listing continues.

Sequence | PBM E-score
AGATTTCC | -0.152
AAGGCAAA | 0.0203
ACGTTCTA | 0.0602
ACCGCTTG | 0.0321
CAACGGGA | 0.00287
CAACCCCC | -0.266
CGGCCCGA | -0.0802
AACGCAAG | 0.0166
CAAGTCCA | -0.138
CGAATAAG | -0.19
CAACACGA | 0.107
GTATCGTA | 0.246
GCCTACGA | 0.239
ACCACGCC | -0.159
TCGACCGA | -0.0251
ACCATTGA | -0.16
AAGCAAGA | -0.00701
TAAGTCAA | -0.134
GACAATCC | 0.0976
CTTATAGA | -0.0474
ATGCTAGC | 0.00665
AGTACTGA | -0.0709
ACCGGGCG | -0.0884
CAATTGGA | -0.0786
ATGGTTTC | -0.0221

Sequence | PBM E-score
CACATTCA | -0.0832
CCAAAAAC | 0.143
AGATCTCG | -0.0282
CAGACCGC | -0.0722
ACTATCAG | -0.0348
AATCAGTC | 0.165
CACTCGCA | -0.0365
AAAACTCT | -0.0704
ATAGGCCA | -0.219
CCCACAAC | -0.0362
CGGTGGGA | -0.158
CTAATGGC | -0.107
AGCGTGCA | 0.0338
ATTCACTG | -0.205
GATACTGC | -0.00387
CACCGGGG | -0.306
CCCTGTAG | -0.2
AGACGTCC | 0.0232
ATCTGAAA | 0.0724
AGGTCCTG | -0.185
AAACCACA | -0.0331
AGAGCTTC | -0.139
ACAAACCG | -0.0187
GACAAGTA | 0.0435
CGCTCGAA | -0.0539

Sequence | PBM E-score
TAGATAAA | 0.0715
CACTCAAC | -0.0212
GGTGGATA | 0.0595
ACGAAACG | 0.229
ACATAGTG | 0.0393
GACTAACC | -0.126
GCTGCTTA | -0.223
CCGTTTTA | 0.203
CCAATTGG | 0.155
ATGTATGC | 0.022
CCGTACGC | 0.241
ATCCCCAT | -0.0421
CAAGGGAG | -0.103
AAGCCGGT | -0.0549
GCGGGAGC | -0.288
AAAGACTA | -0.2
CGTCCTAG | -0.0233
TATTGTGA | 0.191
AGCTTCGC | 0.0433
CGTAGATC | 0.159
ACTAGACA | 0.14
CAGCTATC | 0.0097
CCCCATCA | -0.235
ATCTAATA | 0.216
ACGTTCCG | -0.336

At a glance, part of the list above.
Sequence | PBM E-score
TAGATAAA | 0.0715
CACTCAAC | -0.0212
GGTGGATA | 0.0595
ACGAAACG | 0.229

(list continues)

Sequence | PBM E-score
CCTGCCAG | -0.157
GTTCCGGA | -0.0188
ATGATCCG | 0.0927
AGTGGTAC | -0.207
AGAGGATA | 0.0676
AGAATAGG | 0.052
AAAACGAC | 0.323
ATGCAGCG | -0.174
GGCCAGCA | -0.196
CAAAGGTG | -0.108
GCTGTGCA | -0.0617
CCCCCCGC | -0.381
GGCAGGCC | -0.316
GCGACCCA | -0.0615
CTTTCCTC | -0.168
GGAGACAA | -0.0316
CCCAATCC | -0.0335
CCATCAGC | -0.244
AATCCTAT | 0.104
CCAGGTTC | -0.24
AGGCGCCT | -0.0375
ATGAGAAG | 0.117
AGCTGTTG | 0.19
TCGAGTAA | 0.0992
ACGCGAGC | -0.159

Sequence | PBM E-score
CAAACTGG | -0.253
GAGGTCCA | 0.0249
CTTGGGTC | -0.179
TTGGAAAA | -0.157
AGGCAATA | -0.204
CACCCTCG | -0.12
AACGAATA | 0.0223
GCAGTAGC | -0.226
ACGGGGAT | 0.168
AAGTCTGA | -0.0352
CGAGGCCG | -0.0493
CACAGAAC | -0.0252
GTGTCTCA | -0.00422
CAGCCATA | -0.126
CTAGGGAC | 0.0118
AGTACGAC | 0.18
AGGAGAAG | -0.0371
AATAATAT | 0.276
CTTGTCAA | 0.0838
AGCCATTC | -0.231
CCACATGG | -0.278
CACGTGTA | 0.217
GACATCTA | 0.189
CTTTTGCA | 0.0446
CACCCAAA | -0.0485

Sequence | PBM E-score
ACCAATAA | -0.00797
CTGCGTAA | -0.00545
TCCAGGAA | -0.0758
CCATAGGA | -0.161
AAATTCAG | 0.104
GTGCAAAA | 0.167
GAACCACC | -0.0746
AGTCAGCG | -0.195
ATCCAGAG | 0.081
ACTGCTGC | 0.0883
GTCGGAGA | 0.00386
CTTGACGC | -0.271
TCCCCTAA | -0.0513
TCGCAAGA | 0.0486
TACGTACA | 0.271
AAGTCAGG | -0.21
ACTTGCGG | -0.187
ACCAGCTG | 0.0537
AAGATAGA | 0.0332
CAGGTATA | 0.0143
GGCCCCAA | -0.203
CGCTAGGC | -0.185
CATATCAA | 0.222
AGCCGAAT | -0.0767
AACGCTGG | -0.224

Sequence | PBM E-score
ACGTATTC | 0.0987
AGGTACGC | -0.111
CCTTATCG | 0.163
GCTTCGCC | -0.147
AACCGAGA | 0.0787
AGTAATGC | -0.114
CTCCCCAC | -0.0818
ATTCGTAG | 0.191
CGAGGCTC | -0.222
CACGCGGG | -0.0466
CTAGCGGA | -0.327
GTAAACCA | -0.0676
GCTAGCCC | -0.331
TCGACAAA | -0.0435
ATTTTCAG | 0.0843
GGTAAGAA | -0.0831
ATCCTCTA | 0.083
ATGGCTAG | 0.1
AACGTCGG | -0.0426
